Measured values: the supplement of paper PMC4604168 (melanoma cell lines)
Some of the results follow. Many values rest on one well or one pass, so single values are uncertain.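 The apoptosis fraction was the count of cleaved-PARP antibody-stained nuclei relative to all DNA-stained nuclei, imaged in 1,536-well plates. Screening doses were set so most cells survived, and baseline and induced cleaved-PARP levels vary greatly across cell lines.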

Tests used:
Assay in all cases: cleaved PARP positive nuclei fraction relative to DMSO control; melanoma cells; higher = more apoptosis
Details in all cases: library dose: low library concentration; 72 h
501Mel = tested on: 501Mel
A101D = tested on: A101D
A2058 = tested on: A2058
A375 = tested on: A375
C32 = tested on: C32
CBRC008 = tested on: CBRC008 (line from a melanoma biopsy)
CBRC014 = tested on: CBRC014 (line from a melanoma biopsy)
CBRC016 = tested on: CBRC016 (line from a melanoma biopsy)
CBRC017 = tested on: CBRC017 (line from a melanoma biopsy)
CBRC034 = tested on: CBRC034 (line from a melanoma biopsy)
COLO792 = tested on: COLO792
COLO800 = tested on: COLO800
COLO829 = tested on: COLO829
G361 = tested on: G361
IPC-298 = tested on: IPC-298
IST-MEL1 = tested on: IST-MEL1
LB2518-MEL = tested on: LB2518-MEL
LOXIMVI = tested on: LOXIMVI
MEL-HO = tested on: MEL-HO

Compound	cleaved PARP positive nuclei fraction (501Mel)	cleaved PARP positive nuclei fraction (A101D)	cleaved PARP positive nuclei fraction (A2058)	cleaved PARP positive nuclei fraction (A375)	cleaved PARP positive nuclei fraction (C32)	cleaved PARP positive nuclei fraction (CBRC008)	cleaved PARP positive nuclei fraction (CBRC014)	cleaved PARP positive nuclei fraction (CBRC016)	cleaved PARP positive nuclei fraction (CBRC017)	cleaved PARP positive nuclei fraction (CBRC034)	cleaved PARP positive nuclei fraction (COLO792)	cleaved PARP positive nuclei fraction (COLO800)	cleaved PARP positive nuclei fraction (COLO829)	cleaved PARP positive nuclei fraction (G361)	cleaved PARP positive nuclei fraction (IPC-298)	cleaved PARP positive nuclei fraction (IST-MEL1)	cleaved PARP positive nuclei fraction (LB2518-MEL)	cleaved PARP positive nuclei fraction (LOXIMVI)	cleaved PARP positive nuclei fraction (MEL-HO)
O=C(/C=C/c1cccnc1)NCCCCC1CCN(C(=O)c2ccccc2)CC1 + Cc1ccc(Nc2nccc(N(C)c3ccc4c(C)n(C)nc4c3)n2)cc1S(N)(=O)=O [Pazopanib] (first compound 0.01 µM, partner dose 0.4 µM)	37.1%	25.5%	122%	140%	76.2%	1960%	128%	1120%	615%	1380%	507%	171%	158%	8730%	243%	208%	778%	156%	810%
O=c1[nH]nc(Sc2ncc([N+](=O)[O-])s2)n1-c1ccc2c(c1)OCCO2 + CC(C)C[C@H](NC(=O)[C@H](Cc1ccccc1)NC(=O)c1cnccn1)B(O)O [Bortezomib] (first compound 0.2 µM, partner dose 0.001 µM)	149%	255%	175%	88.7%	83.5%	127%	101%	161%	111%	81.4%	91.5%	101%	44.9%	64.6%	194%	92.7%	63.6%	64.8%	31.8%
N#CC[C@H](C1CCCC1)n1cc(-c2ncnc3[nH]ccc23)cn1 [ruxolitinib] + COc1ccc(Cl)c(Nc2nc3ccccc3nc2NS(=O)(=O)c2cccc(NC(=O)C(C)(C)N)c2)c1 [XL147] (first compound 1 µM, partner dose 0.8 µM)	160%	170%	229%	128%	73.3%	111%	132%	137%	174%	121%	85.5%	24.2%	80.1%	133%	174%	124%	131%	65.4%	129%
O=C(/C=C/c1cccnc1)NCCCCC1CCN(C(=O)c2ccccc2)CC1 + Cn1c(Nc2ccc(C(F)(F)F)cc2)nc2cc(Oc3ccnc(-c4ncc(C(F)(F)F)[nH]4)c3)ccc21 [CHIR265] (first compound 0.01 µM, partner dose 0.08 µM)	50%	72%	167%	347%	107%	1350%	120%	331%	408%	1140%	107%	186%	122%	2150%	88.9%	62.6%	190%	122%	130%
Cc1cc(Nc2cc(N3CCN(C)CC3)nc(Sc3ccc(NC(=O)C4CC4)cc3)n2)n[nH]1 [Tozasertib] + Nc1nc(F)nc2c1ncn2[C@@H]1O[C@H](CO)[C@@H](O)[C@@H]1O [fludarabine] (first compound 0.006 µM, partner dose 0.2 µM)	2820%	44.1%	197%	3860%	88.1%	20.8%	103%	86.3%	101%	27.2%	18.6%	123%	93.9%	89.4%	46.4%	52%	132%	25%	99.5%
CCCCCCCCCCCCCCCCCCOP(=O)([O-])OC1CC[N+](C)(C)CC1 [Perifosine] + OCc1c[nH]c2ccccc12 [Indole-3-carbinol] (first compound 0.4 µM, partner dose 0.8 µM)	62.5%	375%	84.7%	219%	76.7%	49.5%	89.7%	36%	127%	63.4%	159%	160%	45.7%	88.9%	89.4%	187%	114%	120%	188%
O=C(/C=C/c1cccnc1)NCCCCC1CCN(C(=O)c2ccccc2)CC1 + Clc1ccc(Nc2nnc(Cc3ccncc3)c3ccccc23)cc1 [vatalanib] (first compound 0.01 µM, partner dose 2 µM)	94.6%	159%	145%	119%	72.4%	1680%	111%	1010%	373%	318%	347%	339%	263%	4800%	73.5%	194%	218%	201%	435%
O=c1[nH]nc(Sc2ncc([N+](=O)[O-])s2)n1-c1ccc2c(c1)OCCO2 + O=C(/C=C/c1cccnc1)NCCCCC1CCN(C(=O)c2ccccc2)CC1 [FK866] (first compound 0.2 µM, partner dose 0.01 µM)	96.6%	111%	112%	138%	76.3%	2410%	109%	302%	213%	1810%	213%	110%	66.5%	904%	593%	204%	33.5%	139%	470%
CCCCCCCCCCCCCCCCCCOP(=O)([O-])OC1CC[N+](C)(C)CC1 [Perifosine] + C#Cc1cccc(Nc2ncnc3cc(OCCOC)c(OCCOC)cc23)c1 [erlotinib] (first compound 0.4 µM, partner dose 0.8 µM)	65.7%	190%	46.2%	276%	74.3%	187%	94.2%	111%	97.5%	62.9%	91.7%	126%	75.1%	133%	95%	91.2%	122%	99.4%	25%
Cc1cc(Nc2cc(N3CCN(C)CC3)nc(Sc3ccc(NC(=O)C4CC4)cc3)n2)n[nH]1 [Tozasertib] + CCCCCCCCCCCCCCCCCCOP(=O)([O-])OC1CC[N+](C)(C)CC1 [Perifosine] (first compound 0.006 µM, partner dose 0.4 µM)	85.3%	97.8%	115%	119%	76.4%	137%	71.9%	28.9%	83.1%	32.1%	157%	224%	240%	45.5%	85.7%	65.2%	91.4%	35.8%	13.6%
COc1cc([C@@H]2c3cc4c(cc3[C@@H](O[C@@H]3O[C@@H]5CO[C@@H](C)O[C@H]5[C@H](O)[C@H]3O)[C@H]3COC(=O)[C@H]23)OCO4)cc(OC)c1O [etoposide] + COCC[n+]1c2c(n(Cc3cnccn3)c1C)C(=O)c1ccccc1C2=O [YM155] (first compound 0.02 µM, partner dose 0.0004 µM)	50.8%	105%	120%	120%	83.2%	329%	93.7%	95.6%	82.1%	104%	214%	76.9%	31.8%	77.4%	44.5%	61%	49.9%	99.7%	169%
O=c1[nH]nc(Sc2ncc([N+](=O)[O-])s2)n1-c1ccc2c(c1)OCCO2 + Cc1nc(Nc2ncc(C(=O)Nc3c(C)cccc3Cl)s2)cc(N2CCN(CCO)CC2)n1 [dasatanib] (first compound 0.2 µM, partner dose 0.004 µM)	108%	144%	181%	74.7%	82.7%	34%	115%	46.5%	135%	433%	82.9%	94%	88.9%	103%	189%	122%	112%	139%	70.5%
Cc1ccc(Nc2nccc(N(C)c3ccc4c(C)n(C)nc4c3)n2)cc1S(N)(=O)=O [Pazopanib] + Cc1cn(-c2cc(NC(=O)c3ccc(C)c(Nc4nccc(-c5cccnc5)n4)c3)cc(C(F)(F)F)c2)cn1 [nilotinib] (first compound 0.4 µM, partner dose 0.2 µM)	136%	97.5%	134%	39.5%	73.4%	164%	112%	171%	130%	56.6%	145%	35.8%	49.9%	109%	72.4%	88%	122%	249%	98.6%
O=C(Nc1cc(C(F)(F)F)cc(C(F)(F)F)c1)c1cc(Cl)ccc1O + CN1CCN(c2ccc3nc(-c4c(N)c5c(F)cccc5[nH]c4=O)[nH]c3c2)CC1 [Dovitinib] (first compound 0.016 µM, partner dose 0.1 µM)	126%	131%	158%	200%	89.5%	219%	234%	55%	116%	70.7%	124%	28.8%	104%	49.9%	175%	31.3%	52.3%	114%	35.6%
O=C(/C=C/c1cccnc1)NCCCCC1CCN(C(=O)c2ccccc2)CC1 + CC(C)C[C@H](NC(=O)[C@H](Cc1ccccc1)NC(=O)c1cnccn1)B(O)O [Bortezomib] (first compound 0.01 µM, partner dose 0.001 µM)	108%	111%	102%	187%	85.4%	2130%	122%	487%	444%	693%	504%	270%	327%	5370%	577%	131%	212%	110%	276%
Cc1ccc(Nc2nccc(N(C)c3ccc4c(C)n(C)nc4c3)n2)cc1S(N)(=O)=O [Pazopanib] + Cc1cc(Nc2cc(N3CCN(C)CC3)nc(/C=C/c3ccccc3)n2)n[nH]1 [ENMD2076] (first compound 0.4 µM, partner dose 0.04 µM)	77.8%	64%	185%	125%	84.4%	70.3%	106%	158%	179%	43.8%	165%	103%	96.9%	168%	273%	126%	95.7%	28.7%	61%
Cc1cn(-c2cc(NC(=O)c3ccc(C)c(Nc4nccc(-c5cccnc5)n4)c3)cc(C(F)(F)F)c2)cn1 [nilotinib] + COCC[n+]1c2c(n(Cc3cnccn3)c1C)C(=O)c1ccccc1C2=O [YM155] (first compound 0.2 µM, partner dose 0.0004 µM)	95.9%	107%	98.3%	116%	289%	404%	102%	196%	102%	33.6%	120%	26.2%	86.2%	78.7%	89.4%	70.2%	102%	33.3%	119%

Part of the list above, bar-delimited.
Compound | cleaved PARP positive nuclei fraction (501Mel) | cleaved PARP positive nuclei fraction (A101D) | cleaved PARP positive nuclei fraction (A2058) | cleaved PARP positive nuclei fraction (A375) | cleaved PARP positive nuclei fraction (C32) | cleaved PARP positive nuclei fraction (CBRC008) | cleaved PARP positive nuclei fraction (CBRC014) | cleaved PARP positive nuclei fraction (CBRC016) | cleaved PARP positive nuclei fraction (CBRC017) | cleaved PARP positive nuclei fraction (CBRC034) | cleaved PARP positive nuclei fraction (COLO792) | cleaved PARP positive nuclei fraction (COLO800) | cleaved PARP positive nuclei fraction (COLO829) | cleaved PARP positive nuclei fraction (G361) | cleaved PARP positive nuclei fraction (IPC-298) | cleaved PARP positive nuclei fraction (IST-MEL1) | cleaved PARP positive nuclei fraction (LB2518-MEL) | cleaved PARP positive nuclei fraction (LOXIMVI) | cleaved PARP positive nuclei fraction (MEL-HO)
O=C(/C=C/c1cccnc1)NCCCCC1CCN(C(=O)c2ccccc2)CC1 + Clc1ccc(Nc2nnc(Cc3ccncc3)c3ccccc23)cc1 [vatalanib] (first compound 0.01 µM, partner dose 2 µM) | 94.6% | 159% | 145% | 119% | 72.4% | 1680% | 111% | 1010% | 373% | 318% | 347% | 339% | 263% | 4800% | 73.5% | 194% | 218% | 201% | 435%
O=C(Nc1cc(C(F)(F)F)cc(C(F)(F)F)c1)c1cc(Cl)ccc1O + CN1CCN(c2ccc3nc(-c4c(N)c5c(F)cccc5[nH]c4=O)[nH]c3c2)CC1 [Dovitinib] (first compound 0.016 µM, partner dose 0.1 µM) | 126% | 131% | 158% | 200% | 89.5% | 219% | 234% | 55% | 116% | 70.7% | 124% | 28.8% | 104% | 49.9% | 175% | 31.3% | 52.3% | 114% | 35.6%
